This experiment deals with RhCD47. In words: ELISA, plate-coated rhesus macaque CD47, antibody titrated. On the technique in general: An ELISA detects its analyte on a solid surface through an enzyme-linked reagent.

Results are given in words; binding and its absence hold for the method and conditions named. Some entries that bind do so weakly or less than the wild type.

B1: anti-CD47 clone 1-1-A1_BM IgG1 (antibody, V domains shown)
VH: QVQLQQSGPDLKKPGASVKVSCKVSGYTFTNYVIHWVRQKPGQGLEWMGYINPYNDGTKSNEKFKGKATLTSDKSSTSAYMELSSLTSEDTAVYYCASGGYYTMDYWGQGTSVTVSS
VL: DVVMTQTPLSLPVTLGDQASISCRSSQHLEYSNGYSYLHWYQQRPGQSPQLLIYKISNRFSGVPDRFSGSGSGTDFTLKISRVEAEDLGVYYCSQSTHVPYTFGGGTKLEIKR
For B1, the binding result is reported as “binds”.

The values are drawn from patent US20220298254A1 (HUMMINGBIRD BIOSCIENCE HOLDINGS PTE, published 2022).
